Assay results published in article PMC6818788.
Results are given in words; binding and its absence hold for the method and conditions named. For some assays here: In cells and extracts the contact can be indirect. Some results given as binding are weak or reduced against the parent protein; the word gives no strength. For some assays here: Sequences can lack the tags named with a protein.

Columns and labels:
Flag-IRF7 (mouse) = target: T1, Flag-IRF7 (mouse) (UniProt P70434); assay: co-IP; HEK293T cells co-transfected with Flag-IRF7 and HA-tagged p200 family protein or mutant; lysate immunoprecipitated with anti-Flag, immunoblot with anti-HA
T1 sequence: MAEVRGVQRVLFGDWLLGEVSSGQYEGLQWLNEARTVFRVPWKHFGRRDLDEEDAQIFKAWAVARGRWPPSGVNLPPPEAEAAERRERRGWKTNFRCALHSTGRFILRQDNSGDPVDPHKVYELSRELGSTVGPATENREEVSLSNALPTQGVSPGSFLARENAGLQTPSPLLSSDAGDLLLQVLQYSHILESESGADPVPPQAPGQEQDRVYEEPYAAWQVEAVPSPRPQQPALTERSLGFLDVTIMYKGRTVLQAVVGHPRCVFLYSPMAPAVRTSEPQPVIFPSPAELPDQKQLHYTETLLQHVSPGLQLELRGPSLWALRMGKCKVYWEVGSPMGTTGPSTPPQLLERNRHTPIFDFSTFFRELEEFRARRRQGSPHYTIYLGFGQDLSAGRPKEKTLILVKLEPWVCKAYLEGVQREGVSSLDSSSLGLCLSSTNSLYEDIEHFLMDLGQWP

[1] = target: T2, IRF7 (endogenous) (mouse (endogenous in NIH3T3)) (UniProt P70434); assay: co-IP; endogenous proteins; NIH3T3 cells infected with SeV for 8 hrs; lysate immunoprecipitated with anti-IRF7 antibody or control IgG, immunoblot with anti-IFI204
T2 sequence: T1 sequence

GST-IFI204 (mouse) = target: T3, GST-IFI204 (mouse) (UniProt P0DOV2); assay: pull-down; purified GST-IFI204 or GST incubated with MBP-IRF7 or MBP, pulled down with glutathione resin beads, Western blotting; both purified
T3 sequence: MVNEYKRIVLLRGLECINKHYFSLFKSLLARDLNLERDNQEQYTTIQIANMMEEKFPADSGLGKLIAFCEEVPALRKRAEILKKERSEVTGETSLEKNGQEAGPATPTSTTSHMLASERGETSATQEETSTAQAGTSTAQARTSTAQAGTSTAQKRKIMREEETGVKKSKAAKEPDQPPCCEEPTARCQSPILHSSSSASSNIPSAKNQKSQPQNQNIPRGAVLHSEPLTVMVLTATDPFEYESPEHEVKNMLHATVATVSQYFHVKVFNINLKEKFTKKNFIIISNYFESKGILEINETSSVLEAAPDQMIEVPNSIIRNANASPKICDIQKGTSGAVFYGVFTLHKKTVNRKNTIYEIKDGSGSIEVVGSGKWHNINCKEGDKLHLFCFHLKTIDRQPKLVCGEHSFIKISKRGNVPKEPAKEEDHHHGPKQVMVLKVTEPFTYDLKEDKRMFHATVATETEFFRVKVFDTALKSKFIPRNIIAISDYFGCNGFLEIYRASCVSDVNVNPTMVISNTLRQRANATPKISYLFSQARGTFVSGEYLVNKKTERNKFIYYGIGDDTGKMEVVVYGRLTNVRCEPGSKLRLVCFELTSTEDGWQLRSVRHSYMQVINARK

B1: HA-IFI204 (protein, UniProt P0DOV2 1-619)
chain: T3 sequence
With B1 the binding (Flag-IRF7 (mouse)) was “binds”.

B2: HA-AIM2 (protein, UniProt O14862 1-343)
chain: MESKYKEILLLTGLDNITDEELDRFKFFLSDEFNIATGKLHTANRIQVATLMIQNAGAVSAVMKTIRIFQKLNYMLLAKRLQEEKEKVDKQYKSVTKPKPLSQAEMSPAASAAIRNDVAKQRAAPKVSPHVKPEQKQMVAQQESIREGFQKRCLPVMVLKAKKPFTFETQEGKQEMFHATVATEKEFFFVKVFNTLLKDKFIPKRIIIIARYYRHSGFLEVNSASRVLDAESDQKVNVPLNIIRKAGETPKINTLQTQPLGTIVNGLFVVQKVTEKKKNILFDLSDNTGKMEVLGVRNEDTMKCKEGDKVRLTFFTLSKNGEKLQLTSGVHSTIKVIKAKKKT
For B2, the binding (Flag-IRF7 (mouse)) was “binds”.

B3: IFI204 (endogenous) (protein, UniProt P0DOV2 1-619)
chain: T3 sequence
In the case of B3, the binding [1] is reported as “binds”.

B4: MBP-IRF7 (protein, UniProt P70434 1-457)
chain: T1 sequence
In the case of B4, the binding (GST-IFI204 (mouse)) is reported as “binds”.

B5: HA-IFI209 (protein, UniProt Q8BV49 1-420)
chain: MVNEYKRIVLLTGLMGINDHDFRMVKSLLSKELKLNRMQDQYDRVKIADLMEDKFPKDAGVDQLIKLYKQIPGLGDIANKLKNEKAKAKRTRTGKRKTAAKRQRQEEPSTSQPMSTTNEDAEPESGRSTPDTQVAQLSLPTASRRNQAIQISPTIASSSGQTSSRSSETLQSIIQSPKTPKRPSSSILDPPVSSGTASSSAQALGVPLATIAKRQRLKNVPKEPSEENGHQQGSKKVMVLKVTEPFSYDVTEEKMFHATVATETEFFRVKVFDIVLKEKFIPNKVLTISNYVGCNGFINIYSASSVSEVNDGEPMNIPLSLRKSANRTPKINYLCSKKRGIFVNGVFTVCKKEEKWNYICYEIGDDTGMMEVEVYGRLTNIACNPGDKLRLICFKLIPDEEKAQLRSTTHSNMQVIKAKN
B5 was tested, and the binding (Flag-IRF7 (mouse)) was “binds”.

B6: HA-IFI202 (protein, UniProt Q9R002 1-445)
chain: MSNRNLRSSTNSEFSEGQHQTPSSDSSGHGEDQPQASPGPNKKSHTPKKNISKGAVLHEKPMTVMVLTATEPFNYKEGKENMFHATVATESQYYRVKVFNMDLKEKFTENKFITISKYFNSSGILEINETATVSEAAPNQIIEVPKNIIRSAKETLKISKIKELDSGTLIYGVFAVEKKKVNDKSITFKIKDNEDNIKVVWDKKQHNINYEKGDKLQLFSFHLRKGNGKPILHSGNHSFIKGEKLLKESFEGDGYHKGPKQVVALKATKLFTYDSIKSKKMFHATVATDTEFFRVMVFEENLEKKFIPGNTIALSDYFGMYGSLAIHEYSSVSEVKSQNKEDSSSSDERLIEHLKICDLHLQTKERLVDGEFKVYRKSTGNNCICYGIWDDTGAMKVVVSGQLTSVNCEIGNTIRLVCFELTSNADEWFLRSTRYSYMEVIMPEK
With B6 the binding (Flag-IRF7 (mouse)) was “binds”.

B7: HA-MNDAL (protein, UniProt D0QMC3 1-538)
chain: MAEYKKIVLLKGLESMEDYQFRTVKSLLRKELKLTKKLQEDYDRIQLADWMEDKFPKYAGLDKLIKVCEHIKDLKDLAKKLKTEKAKVQKKKQGKCKTAVKKKGQDELSSSESLFINKESYKSVPSSKKKGKAIAKTEGEKKNKLTQDQDHLPETSGTDIKTEEDCLQNSPKPPPTSPSSSSNKKKRKEITKTEGGKKKKLTQEQAQLPEPLGTDIKKDEDCLQTPPKPPPTPPSSSLNKKRKSRREEETGVKKSKAAKEPDQPPCCEEPTARCQSPILHSSSSASSNIPSATNQKPQPQNQNIPRGAVLHSEPLTVMVLTATDPFEYESPEHEVKNMFHATVATVSQYFHVKVFNINLKEKFTKKNFIIISNYFESKGILEINETSSVLKADPDQMIEVPNNIIRNANASPKICDIQKGTSGAVFYGVFTLHKKKVKTQNTSYEIKDGSGSIEVEGSGQWHNINCKEGDKLHLFCFHLKRERGQPKLVCGDHSFVKIKVTKAGKKKEASTVLSSTKNEEENNYPKDGIKVEMPDYHV
With B7 the binding (Flag-IRF7 (mouse)) was “binds”.

B8: HA-MNDA (protein, UniProt P41218 1-407)
chain: MVNEYKKILLLKGFELMDDYHFTSIKSLLAYDLGLTTKMQEEYNRIKITDLMEKKFQGVACLDKLIELAKDMPSLKNLVNNLRKEKSKVAKKIKTQEKAPVKKINQEEVGLAAPAPTARNKLTSEARGRIPVAQKRKTPNKEKTEAKRNKVSQEQSKPPGPSGASTSAAVDHPPLPQTSSSTPSNTSFTPNQETQAQRQVDARRNVPQNDPVTVVVLKATAPFKYESPENGKSTMFHATVASKTQYFHVKVFDINLKEKFVRKKVITISDYSECKGVMEIKEASSVSDFNQNFEVPNRIIEIANKTPKISQLYKQASGTMVYGLFMLQKKSVHKKNTIYEIQDNTGSMDVVGSGKWHNIKCEKGDKLRLFCLQLRTVDRKLKLVCGSHSFIKVIKAKKNKEGPMNVN
In the case of B8, the binding (Flag-IRF7 (mouse)) is reported as “binds”.
